The other results are listed elsewhere or left out. Small differences around the control level are noise.

By UniProt entry, the sequences of proteins in these tests, tags left out. Where a name states a change or a piece, a line headed by the entry shows the natural chain unless it says otherwise.
UniProt Q8N335: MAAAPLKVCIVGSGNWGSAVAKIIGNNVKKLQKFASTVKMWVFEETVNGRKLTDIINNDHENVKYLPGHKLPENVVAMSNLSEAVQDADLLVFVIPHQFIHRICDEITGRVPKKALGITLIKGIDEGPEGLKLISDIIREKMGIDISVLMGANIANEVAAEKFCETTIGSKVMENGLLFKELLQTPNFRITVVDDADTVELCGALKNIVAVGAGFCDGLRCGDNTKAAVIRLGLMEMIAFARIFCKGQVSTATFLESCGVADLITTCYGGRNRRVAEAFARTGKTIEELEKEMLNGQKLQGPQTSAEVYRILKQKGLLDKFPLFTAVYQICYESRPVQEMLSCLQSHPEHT
UniProt Q8NHS0: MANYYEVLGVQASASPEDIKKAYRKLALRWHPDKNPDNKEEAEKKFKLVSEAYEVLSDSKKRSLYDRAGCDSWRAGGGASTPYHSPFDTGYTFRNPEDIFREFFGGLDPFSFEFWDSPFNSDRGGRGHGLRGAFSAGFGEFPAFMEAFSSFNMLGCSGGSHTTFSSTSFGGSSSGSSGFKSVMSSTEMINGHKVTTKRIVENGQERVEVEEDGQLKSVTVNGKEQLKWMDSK
UniProt Q8NFY9: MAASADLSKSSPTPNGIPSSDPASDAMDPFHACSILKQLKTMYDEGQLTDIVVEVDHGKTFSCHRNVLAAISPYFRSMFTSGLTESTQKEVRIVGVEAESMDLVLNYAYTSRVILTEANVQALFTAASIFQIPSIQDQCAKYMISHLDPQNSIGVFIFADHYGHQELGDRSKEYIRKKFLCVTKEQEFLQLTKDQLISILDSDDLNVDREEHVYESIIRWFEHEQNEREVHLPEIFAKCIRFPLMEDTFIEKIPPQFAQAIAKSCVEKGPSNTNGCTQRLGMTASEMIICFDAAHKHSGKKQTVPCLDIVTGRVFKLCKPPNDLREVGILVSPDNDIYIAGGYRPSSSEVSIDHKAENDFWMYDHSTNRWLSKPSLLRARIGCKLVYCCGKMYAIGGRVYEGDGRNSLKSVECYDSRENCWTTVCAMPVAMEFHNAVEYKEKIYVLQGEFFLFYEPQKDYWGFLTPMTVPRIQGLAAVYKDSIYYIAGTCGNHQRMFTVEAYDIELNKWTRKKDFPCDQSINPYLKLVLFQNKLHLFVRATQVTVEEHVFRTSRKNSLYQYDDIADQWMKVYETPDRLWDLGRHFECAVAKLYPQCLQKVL
UniProt Q8N488: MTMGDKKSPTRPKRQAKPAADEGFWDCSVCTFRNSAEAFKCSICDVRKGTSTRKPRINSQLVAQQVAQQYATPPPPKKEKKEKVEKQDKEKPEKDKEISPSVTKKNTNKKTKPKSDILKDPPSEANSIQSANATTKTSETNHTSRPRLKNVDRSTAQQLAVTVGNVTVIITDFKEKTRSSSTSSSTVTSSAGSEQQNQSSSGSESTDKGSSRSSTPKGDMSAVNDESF
UniProt Q8N5J2: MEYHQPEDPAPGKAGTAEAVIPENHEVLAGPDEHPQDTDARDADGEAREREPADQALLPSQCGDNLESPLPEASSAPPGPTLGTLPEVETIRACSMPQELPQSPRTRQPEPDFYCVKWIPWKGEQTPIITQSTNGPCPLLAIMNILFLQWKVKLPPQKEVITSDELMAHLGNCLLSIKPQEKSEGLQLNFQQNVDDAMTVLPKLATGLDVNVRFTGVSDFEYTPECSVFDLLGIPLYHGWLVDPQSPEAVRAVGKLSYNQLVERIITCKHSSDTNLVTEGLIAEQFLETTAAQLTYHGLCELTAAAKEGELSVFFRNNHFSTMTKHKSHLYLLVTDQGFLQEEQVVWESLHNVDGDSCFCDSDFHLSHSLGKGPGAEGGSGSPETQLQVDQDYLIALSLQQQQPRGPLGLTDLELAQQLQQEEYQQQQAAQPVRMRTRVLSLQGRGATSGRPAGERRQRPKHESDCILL
UniProt Q8NEY8: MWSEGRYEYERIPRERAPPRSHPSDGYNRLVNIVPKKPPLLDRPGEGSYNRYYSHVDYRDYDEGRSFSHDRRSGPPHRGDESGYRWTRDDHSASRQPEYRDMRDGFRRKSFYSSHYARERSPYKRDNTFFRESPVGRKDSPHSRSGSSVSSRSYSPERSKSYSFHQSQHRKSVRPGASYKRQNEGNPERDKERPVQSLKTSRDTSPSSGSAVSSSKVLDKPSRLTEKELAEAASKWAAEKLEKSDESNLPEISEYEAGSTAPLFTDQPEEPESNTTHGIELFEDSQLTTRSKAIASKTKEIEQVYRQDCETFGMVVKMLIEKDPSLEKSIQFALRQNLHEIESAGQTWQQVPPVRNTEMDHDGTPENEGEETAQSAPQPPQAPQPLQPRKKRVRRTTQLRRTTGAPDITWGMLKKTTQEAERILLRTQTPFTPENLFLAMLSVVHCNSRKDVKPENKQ
UniProt Q8NHG7: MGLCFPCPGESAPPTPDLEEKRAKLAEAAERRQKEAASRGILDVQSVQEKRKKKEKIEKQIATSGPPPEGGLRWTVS
UniProt Q8N9Q2: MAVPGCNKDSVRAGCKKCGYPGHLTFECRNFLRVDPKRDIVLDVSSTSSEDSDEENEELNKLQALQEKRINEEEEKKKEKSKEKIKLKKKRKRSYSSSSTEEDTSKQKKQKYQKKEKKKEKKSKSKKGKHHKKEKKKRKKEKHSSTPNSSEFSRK
UniProt Q8N8J7: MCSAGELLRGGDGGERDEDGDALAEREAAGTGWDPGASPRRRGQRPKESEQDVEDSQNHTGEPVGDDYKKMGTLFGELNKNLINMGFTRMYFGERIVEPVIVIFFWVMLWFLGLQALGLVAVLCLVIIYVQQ
UniProt Q8NB46: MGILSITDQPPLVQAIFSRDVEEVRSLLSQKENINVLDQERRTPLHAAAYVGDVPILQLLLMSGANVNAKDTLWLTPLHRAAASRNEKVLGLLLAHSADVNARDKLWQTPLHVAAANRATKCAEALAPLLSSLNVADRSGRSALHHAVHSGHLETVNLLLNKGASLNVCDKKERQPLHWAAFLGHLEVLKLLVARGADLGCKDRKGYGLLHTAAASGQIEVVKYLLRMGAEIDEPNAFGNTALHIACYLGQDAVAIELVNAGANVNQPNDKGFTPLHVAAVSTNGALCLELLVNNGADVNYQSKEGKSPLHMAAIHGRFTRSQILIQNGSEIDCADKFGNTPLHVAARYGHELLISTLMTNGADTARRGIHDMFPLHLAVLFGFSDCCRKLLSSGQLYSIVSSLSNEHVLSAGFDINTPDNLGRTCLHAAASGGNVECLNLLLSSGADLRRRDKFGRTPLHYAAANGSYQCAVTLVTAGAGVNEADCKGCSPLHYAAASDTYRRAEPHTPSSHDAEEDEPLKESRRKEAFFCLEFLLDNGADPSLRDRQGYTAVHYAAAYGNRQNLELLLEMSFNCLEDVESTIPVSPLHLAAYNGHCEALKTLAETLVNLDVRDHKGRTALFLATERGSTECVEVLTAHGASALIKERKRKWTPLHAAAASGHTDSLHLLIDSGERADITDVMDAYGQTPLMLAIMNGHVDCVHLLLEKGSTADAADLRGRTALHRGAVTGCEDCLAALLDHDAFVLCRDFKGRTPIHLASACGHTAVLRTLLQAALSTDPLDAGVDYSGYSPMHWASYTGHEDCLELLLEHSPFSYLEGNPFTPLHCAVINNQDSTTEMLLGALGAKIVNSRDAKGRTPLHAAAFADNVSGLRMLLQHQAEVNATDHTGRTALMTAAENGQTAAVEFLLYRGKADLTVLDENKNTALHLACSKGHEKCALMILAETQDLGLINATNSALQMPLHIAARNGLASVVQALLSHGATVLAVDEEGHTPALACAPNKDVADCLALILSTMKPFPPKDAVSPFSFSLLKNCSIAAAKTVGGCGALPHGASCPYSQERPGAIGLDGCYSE
UniProt Q8NBE8: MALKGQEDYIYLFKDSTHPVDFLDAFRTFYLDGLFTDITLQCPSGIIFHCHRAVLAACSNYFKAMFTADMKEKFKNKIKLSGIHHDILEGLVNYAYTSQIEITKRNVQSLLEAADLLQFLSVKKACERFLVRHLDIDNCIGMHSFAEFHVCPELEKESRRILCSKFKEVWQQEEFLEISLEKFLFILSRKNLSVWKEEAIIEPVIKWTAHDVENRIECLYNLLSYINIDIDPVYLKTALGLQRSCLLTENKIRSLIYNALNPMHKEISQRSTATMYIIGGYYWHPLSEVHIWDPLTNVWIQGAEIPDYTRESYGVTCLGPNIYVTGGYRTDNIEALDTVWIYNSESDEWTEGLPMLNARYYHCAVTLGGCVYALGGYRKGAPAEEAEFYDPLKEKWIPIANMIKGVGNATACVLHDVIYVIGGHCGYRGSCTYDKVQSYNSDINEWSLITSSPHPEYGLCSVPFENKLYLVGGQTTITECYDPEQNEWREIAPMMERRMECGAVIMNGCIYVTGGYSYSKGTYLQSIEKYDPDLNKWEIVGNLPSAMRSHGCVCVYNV
UniProt Q8NI22: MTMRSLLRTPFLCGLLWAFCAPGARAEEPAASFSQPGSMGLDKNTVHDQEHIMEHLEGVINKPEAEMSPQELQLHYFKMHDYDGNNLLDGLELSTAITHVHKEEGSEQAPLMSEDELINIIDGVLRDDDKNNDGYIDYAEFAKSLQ
UniProt Q8N5M4: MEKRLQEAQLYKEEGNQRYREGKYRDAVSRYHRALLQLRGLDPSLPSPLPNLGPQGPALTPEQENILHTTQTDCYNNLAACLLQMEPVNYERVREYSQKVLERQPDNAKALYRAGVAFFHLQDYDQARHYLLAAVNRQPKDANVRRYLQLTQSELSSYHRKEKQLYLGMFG
UniProt Q8NBX0: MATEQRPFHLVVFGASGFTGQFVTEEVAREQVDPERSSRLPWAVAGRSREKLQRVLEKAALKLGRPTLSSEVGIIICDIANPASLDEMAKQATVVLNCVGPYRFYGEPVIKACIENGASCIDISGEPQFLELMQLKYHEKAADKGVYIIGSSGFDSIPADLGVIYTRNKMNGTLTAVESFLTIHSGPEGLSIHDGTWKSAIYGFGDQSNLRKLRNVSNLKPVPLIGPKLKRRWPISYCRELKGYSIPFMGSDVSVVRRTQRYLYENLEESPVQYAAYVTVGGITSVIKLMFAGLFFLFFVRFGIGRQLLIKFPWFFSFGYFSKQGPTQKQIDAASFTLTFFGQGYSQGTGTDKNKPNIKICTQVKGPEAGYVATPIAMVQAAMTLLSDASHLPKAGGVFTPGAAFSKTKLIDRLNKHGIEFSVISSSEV
UniProt Q8NC96: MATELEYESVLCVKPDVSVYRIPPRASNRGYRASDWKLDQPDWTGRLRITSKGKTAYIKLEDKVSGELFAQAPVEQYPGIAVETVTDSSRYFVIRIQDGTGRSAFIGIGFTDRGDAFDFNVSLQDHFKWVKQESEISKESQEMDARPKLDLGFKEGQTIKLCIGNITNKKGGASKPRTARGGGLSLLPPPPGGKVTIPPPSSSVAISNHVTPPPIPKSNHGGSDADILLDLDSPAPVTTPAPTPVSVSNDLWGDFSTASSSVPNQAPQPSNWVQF
UniProt Q8N1G0: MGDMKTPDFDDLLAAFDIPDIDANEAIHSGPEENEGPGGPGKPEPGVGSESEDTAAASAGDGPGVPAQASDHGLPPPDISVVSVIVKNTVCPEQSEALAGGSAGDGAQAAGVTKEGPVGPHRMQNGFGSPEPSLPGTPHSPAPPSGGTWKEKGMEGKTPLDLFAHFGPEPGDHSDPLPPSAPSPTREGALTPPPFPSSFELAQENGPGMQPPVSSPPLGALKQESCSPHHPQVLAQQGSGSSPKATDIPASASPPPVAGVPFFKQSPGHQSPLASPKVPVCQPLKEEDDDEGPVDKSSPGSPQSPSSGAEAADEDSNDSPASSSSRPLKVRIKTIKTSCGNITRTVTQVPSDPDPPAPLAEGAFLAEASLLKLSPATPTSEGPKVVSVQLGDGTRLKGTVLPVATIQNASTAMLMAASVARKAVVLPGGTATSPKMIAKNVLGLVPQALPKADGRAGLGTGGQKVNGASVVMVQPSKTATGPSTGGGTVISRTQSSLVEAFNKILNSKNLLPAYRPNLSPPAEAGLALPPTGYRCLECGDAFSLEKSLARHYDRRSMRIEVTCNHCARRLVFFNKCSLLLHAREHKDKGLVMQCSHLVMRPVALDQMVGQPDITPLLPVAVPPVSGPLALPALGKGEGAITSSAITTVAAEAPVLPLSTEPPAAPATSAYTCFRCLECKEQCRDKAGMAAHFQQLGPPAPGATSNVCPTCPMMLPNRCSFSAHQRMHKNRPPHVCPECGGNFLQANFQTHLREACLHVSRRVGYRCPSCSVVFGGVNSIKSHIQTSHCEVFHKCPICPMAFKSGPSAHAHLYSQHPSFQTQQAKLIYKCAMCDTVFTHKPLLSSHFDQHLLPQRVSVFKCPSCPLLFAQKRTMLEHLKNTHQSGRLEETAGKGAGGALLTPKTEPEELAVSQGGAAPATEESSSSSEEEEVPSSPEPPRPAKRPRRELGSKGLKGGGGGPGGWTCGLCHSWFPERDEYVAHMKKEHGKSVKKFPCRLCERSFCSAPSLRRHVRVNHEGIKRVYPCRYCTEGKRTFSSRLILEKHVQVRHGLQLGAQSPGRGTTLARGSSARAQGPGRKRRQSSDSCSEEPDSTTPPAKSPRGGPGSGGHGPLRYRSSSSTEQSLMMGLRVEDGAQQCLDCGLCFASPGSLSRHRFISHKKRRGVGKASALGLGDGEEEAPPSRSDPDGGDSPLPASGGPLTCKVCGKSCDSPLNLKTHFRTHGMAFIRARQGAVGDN

Compound in the assay: Cc1nc(Nc2ncc(C(=O)Nc3c(C)cccc3Cl)s2)cc(N2CCN(CCO)CC2)n1 [dasatinib]
Nature of the assay: log2 fold change of tryptic peptide abundance, ligand vs vehicle (limited proteolysis) (log2 ratio); higher = more trypsin-susceptible (destabilized). As to conditions: ligand concentration: 5 uM; sample: K562 cleared lysate.
For the target “INTS1 (peptide sequence: ELLSAHKDNLGTTIK, peptide start residue: 429) (UniProt Q8N201)”, the log2 fold change is -0.397.

In the case of “GPD1L (peptide sequence: KALGITLIK, peptide start residue: 114) (UniProt Q8N335)”, the log2 fold change is -0.172. For the target “UniProt Q8NHS0 (peptide sequence: RIVENGQER, peptide start residue: 207)”, the log2 fold change is 0.655. On to “KBTBD8 (peptide sequence: SCVEKGPSNTNGCTQR, peptide start residue: 264) (UniProt Q8NFY9)”, for which the log2 fold change is -0.66. With “RYBP (peptide sequence: DKEISPSVTK, peptide start residue: 95) (UniProt Q8N488)”, the log2 fold change was found to be 0.208.

As for “MINDY1 (peptide sequence: LSYNQLVER, peptide start residue: 256) (UniProt Q8N5J2)”, the log2 fold change was -0.1. As to “PPHLN1 (peptide sequence: YYSHVDYR, peptide start residue: 52) (UniProt Q8NEY8)”, the log2 fold change was -0.388. As to “SVIP (peptide sequence: GILDVQSVQEK, peptide start residue: 40) (UniProt Q8NHG7)”, the log2 fold change is -0.155.

Regarding “SREK1IP1 (peptide sequence: HSSTPNSSEFSRK, peptide start residue: 143) (UniProt Q8N9Q2)”, the log2 fold change was -0.207. With “UniProt Q8N8J7 (peptide sequence: NLINMGFTR, peptide start residue: 81)”, the log2 fold change came to 0.379. As to “SIRT6 (peptide sequence: FLVSQNVDGLHVR, peptide start residue: 109) (UniProt Q8N6T7)”, the log2 fold change turned out to be 0.238. As to “ANKRD52 (peptide sequence: QGYTAVHYAAAYGNR, peptide start residue: 549) (UniProt Q8NB46)”, the log2 fold change is 0.406. Regarding “UniProt Q8NBE8 (peptide sequence: SLIYNALNPMHK, peptide start residue: 254)”, the log2 fold change was 0.177.

Regarding “HELB (peptide sequence: VYVIAEESQLR, peptide start residue: 923) (UniProt Q8NG08)”, the log2 fold change was -0.297. The figure for “PHC3 (peptide sequence: HQQIPLHSPPSK, peptide start residue: 308) (UniProt Q8NDX5)” is -0.498; for “MCFD2 (peptide sequence: DDDKNNDGYIDYAEFAK, peptide start residue: 127) (UniProt Q8NI22)” it is 0.0786; for “TTC9C (peptide sequence: HYLLAAVNRQPK, peptide start residue: 129) (UniProt Q8N5M4)” it is -0.241.

Take “SCCPDH (peptide sequence: NVSNLKPVPLIGPK, peptide start residue: 215) (UniProt Q8NBX0)”: the log2 fold change is 0.244. The value for “UniProt Q8NDA8 (peptide sequence: SLVHLAQK, peptide start residue: 507)” was 0.359; that for “UniProt Q8N8J0 (peptide sequence: EFDFFNK, peptide start residue: 1734)” was -0.179. “NECAP1 (peptide sequence: ESQEMDARPK, peptide start residue: 139) (UniProt Q8NC96)”: the log2 fold change worked out at 0.105. On to “ANKRD44 (peptide sequence: GANINAFDKK, peptide start residue: 163) (UniProt Q8N8A2)”, for which the log2 fold change is -0.221. As for “WDTC1 (peptide sequence: KWDGDHYDALR, peptide start residue: 410) (UniProt Q8N5D0)”, the log2 fold change was -0.143. The value for “LCORL (peptide sequence: QFAIEYISK, peptide start residue: 167) (UniProt Q8N3X6)” was -0.47. The value for “FNBP4 (peptide sequence: TKMPSLVK, peptide start residue: 941) (UniProt Q8N3X1)” was 0.296. For the target “ZNF687 (peptide sequence: KAVVLPGGTATSPK, peptide start residue: 422) (UniProt Q8N1G0)”, the log2 fold change turned out to be 0.205.

Values taken from the supplement of paper PMC12819154, “High-throughput peptide-centric local stability assay extends protein–ligand identification to membrane proteins, tissues and bacteria” (Nature Structural & Molecular Biology, 2025).
